System: CL1-5 lung cancer cells
Assay: Two-dimensional electrophoresis with phosphoprotein stain
Assay type: cell-based
Conditions: CL1-5 cells, 10 μM, 48 hours

C[C@H](CCC(=O)O)C1CC[C@H]2C3CC[C@@H]4C[C@H](OC(=O)[C@@H](N)CC(=O)O)CC[C@]4(C)C3CC[C@]12C (stereo partly drawn) [Compound 13, (R)-4-((3R,5R,10S,13R,14S)-3-((S)-2-amino-3-carboxypropanoyloxy)-10,13-dimethyl-hexadecahydro-1H-cyclopenta[a]phenanthren-17-yl)pentanoic acid]
protein spots with decreased intensity on 2-D gels: forty-nine spots with decreased intensity
protein spots with increased intensity on 2-D gels: four spots with increased intensity
